The record followed here is PubChem BioAssay AID256 (DTP/NCI, 2004).

The list is a part of this screen's results and no random one: it gathers tests that were run many times, whatever their T/C, doses with no T/C, and many T/C values between a quarter and a half above the control. Other doses and runs of a compound stand elsewhere. T/C: endpoint of the treated group in % of that of the vehicle group. Some doses have a count of surviving animals in place of a T/C: the source holds a T/C of zero for them, seemingly a mark for toxic or unscored doses. Some doses without a T/C left all or most animals alive at the check, yet need not have been tolerated: the source hardly ever lists a survival T/C far under the control, and the zero likely stands for such cases as well. Survivors were counted at the toxicity check, usually on the fifth day, unless a day is given; later deaths do not show. Schedule codes are those of the source, taken here to give the interval after Q, in days (D) or hours (H), and the number of doses after X. Some entries were tested several times; the values are given in rising order. Some schedule codes hold Z or #, which are not explained here. Where survival is the endpoint, the PubChem record calls one and a half times the control and up active, and a quarter to a half above the control has no call in these data; cut-offs in other NCI protocols can differ. Some T/C values carry the count of animals alive at the toxicity check (mostly the fifth day); where none is given, no animal had died by that day.

The test system of the assay is CD2F1 mice, L1210 leukemia ip, survival T/C. In words: NCI In Vivo Anticancer Drug Screen. Data for tumor model L1210 Leukemia (intraperitoneal) in CD2F1 (CDF1) mice. The following applies: higher T/C = longer survival. As for the experimental part: The antitumor activity of compounds was measured in mice bearing transplantable tumors. Survival or tumor size were measured and the results are expressed as the measurement made in the treated group (T) divided by the measurement made in the vehicle treated control group (C). The tumor model used in this assay is L1210 Leukemia (intraperitoneal) in CD2F1 (CDF1) mice

[1] abbreviates: T/C endpoint: mean survival time, dose: 400.0 mg/kg/injection, schedule: Q01DX009 (ip), vehicle: Klucel (hydroxypropylcellulose) (HPC).
[2] abbreviates: T/C endpoint: mean survival time, dose: 400.0 mg/kg/injection, schedule: Q04DX003 (ip), vehicle: saline with Tween-80.
The mark [3] stands for this setting: T/C endpoint: mean survival time, dose: 200.0 mg/kg/injection, schedule: Q04DX002 (ip), vehicle: saline with Tween-80.

Regarding `Oc1ccc2ccccc2c1`, the survivor count runs as follows: (T/C endpoint: mean survival time, dose: 100.0 mg/kg/injection, schedule: Q04DX003 (ip), vehicle: Klucel (hydroxypropylcellulose) (HPC)) 0 of 6; (T/C endpoint: mean survival time, dose: 200.0 mg/kg/injection, schedule: Q04DX003 (ip), vehicle: Klucel (hydroxypropylcellulose) (HPC)) 0 of 6; (T/C endpoint: mean survival time, dose: 400.0 mg/kg/injection, schedule: Q04DX003 (ip), vehicle: Klucel (hydroxypropylcellulose) (HPC)) 0 of 6.

Take `C1=NC(c2ccccn2)=NNC(c2ccccn2)=C1c1ccccc1`: the survivor count under setting [1] is given as 1 of 6.

As for `CO[C@H](C(=O)[C@@H](O)[C@@H](C)O)[C@@H]1Cc2cc3cc(OC4CC(OC5CC(O)C(O)C(C)O5)C(O)C(C)O4)c(C)c(O)c3c(O)c2C(=O)[C@H]1OC1CC(OC2CC(OC3CC(C)(O)C(O)C(C)O3)C(O)C(C)O2)C(O)C(C)O1` (some centres not stated), the survivor count is, setting by setting: (T/C endpoint: mean survival time, dose: 1.0 mg/kg/injection, schedule: Q01DX Z (ip), vehicle: saline) 5 of 6; (T/C endpoint: mean survival time, dose: 2.0 mg/kg/injection, schedule: Q01DX009 (ip), vehicle: saline) 0 of 6; (T/C endpoint: mean survival time, dose: 2.0 mg/kg/injection, schedule: Q01DX Z (ip), vehicle: saline) 0 of 6; (T/C endpoint: mean survival time, dose: 4.0 mg/kg/injection, schedule: Q01DX Z (ip), vehicle: saline) 0 of 6.

Regarding `Nc1nc(=O)n(C2OC(CO)C(O)C2O)cc1F` (configuration not stated), the T/C is 144 % of control (T/C endpoint: mean survival time, dose: 0.12 mg/kg/injection, schedule: Q03HX024 (ip), vehicle: saline); 132 % of control (T/C endpoint: mean survival time, dose: 1.0 mg/kg/injection, schedule: Q01DX009 (ip), vehicle: saline); 127 % of control (T/C endpoint: mean survival time, dose: 2.0 mg/kg/injection, schedule: Q04DX003 (ip), vehicle: saline); 132 % of control (T/C endpoint: mean survival time, dose: 4.0 mg/kg/injection, schedule: Q03HX016 (ip), vehicle: saline); 147 % of control (T/C endpoint: mean survival time, dose: 16.0 mg/kg/injection, schedule: Q03HX008 (ip), vehicle: saline); 147 % of control (T/C endpoint: mean survival time, dose: 16.0 mg/kg/injection, schedule: Q04DX003 (ip), vehicle: saline). In addition, the T/C (T/C endpoint: mean survival time, dose: 20.0 mg/kg/injection, schedule: Q03DX003 (ip), vehicle: saline) was 132 % of control; the T/C (T/C endpoint: mean survival time, dose: 32.0 mg/kg/injection, schedule: Q03HX024 (oral), vehicle: saline) is 126 % of control; the T/C (T/C endpoint: mean survival time, dose: 40.0 mg/kg/injection, schedule: Q03DX003 (ip), vehicle: saline) was 135 % of control; the T/C (T/C endpoint: mean survival time, dose: 64.0 mg/kg/injection, schedule: Q01DX009 (ip), vehicle: saline) was 140 % of control; the T/C (T/C endpoint: mean survival time, dose: 80.0 mg/kg/injection, schedule: Q03DX003 (ip), vehicle: saline) is 142 % of control; the T/C (T/C endpoint: mean survival time, dose: 128.0 mg/kg/injection, schedule: Q01DX009 (oral), vehicle: saline) is 135 % of control. Further, the T/C by setting is: (T/C endpoint: mean survival time, dose: 256.0 mg/kg/injection, schedule: Q01DX001 (ip), vehicle: saline) 125 % of control; (T/C endpoint: mean survival time, dose: 256.0 mg/kg/injection, schedule: Q01DX001 (sc), vehicle: saline) 138 % of control; (T/C endpoint: mean survival time, dose: 256.0 mg/kg/injection, schedule: Q03HX016 (ip), vehicle: saline) 147 % of control [8 of 10 alive]; (T/C endpoint: mean survival time, dose: 256.0 mg/kg/injection, schedule: Q08DX002 (ip), vehicle: saline) 127 % of control; (T/C endpoint: mean survival time, dose: 300.0 mg/kg/injection, schedule: Q01DX001 (ip), vehicle: saline) 139 % of control; (T/C endpoint: mean survival time, dose: 512.0 mg/kg/injection, schedule: Q01DX001 (ip), vehicle: saline) 146 % of control. The T/C by setting is: (T/C endpoint: mean survival time, dose: 600.0 mg/kg/injection, schedule: Q01DX001 (oral), vehicle: saline) 131 % of control; (T/C endpoint: mean survival time, dose: 1200.0 mg/kg/injection, schedule: Q01DX001 (oral), vehicle: saline) 145 % of control [9 of 10 alive]. For the same compound, the survivor count is, setting by setting: (T/C endpoint: mean survival time, dose: 64.0 mg/kg/injection, schedule: Q03HX008 (ip), vehicle: saline) 4 of 10; (T/C endpoint: mean survival time, dose: 64.0 mg/kg/injection, schedule: Q03HX024 (ip), vehicle: saline) 4 of 10; (T/C endpoint: mean survival time, dose: 75.0 mg/kg/injection, schedule: Q01DX008 (ip), vehicle: saline) 4 of 10; (T/C endpoint: mean survival time, dose: 128.0 mg/kg/injection, schedule: Q03HX008 (ip), vehicle: saline) 8 of 10; (T/C endpoint: mean survival time, dose: 128.0 mg/kg/injection, schedule: Q03HX024 (oral), vehicle: saline) 2 of 10; (T/C endpoint: mean survival time, dose: 150.0 mg/kg/injection, schedule: Q01DX008 (ip), vehicle: saline) 7 of 10. In addition, the survivor count by setting is: (T/C endpoint: mean survival time, dose: 150.0 mg/kg/injection, schedule: Q01DX008 (oral), vehicle: saline) 4 of 10; (T/C endpoint: mean survival time, dose: 200.0 mg/kg/injection, schedule: Q01DX009 (ip), vehicle: saline) 6 of 6; (T/C endpoint: mean survival time, dose: 400.0 mg/kg/injection, schedule: Q01DX009 (ip), vehicle: saline) 10 of 10 and 6 of 6; (T/C endpoint: mean survival time, dose: 512.0 mg/kg/injection, schedule: Q03HX024 (ip), vehicle: saline) 8 of 10; (T/C endpoint: mean survival time, dose: 1024.0 mg/kg/injection, schedule: Q03HX016 (ip), vehicle: saline) 6 of 10.

In the case of `COc1ccc2c(oc(=O)c3c(Cl)nc(C)c(C)c32)c1OC`, the survivor count under setting [1] is on record as 6 of 6.

In the case of `Nc1cccc(C(=O)c2ccc(-c3nc4ncnc(N)c4[nH]3)cc2)c1`, the survivor count is reported as 6 of 6 (T/C endpoint: mean survival time, dose: 100.0 mg/kg/injection, schedule: Q04DX003 (ip), vehicle: saline with Tween-80); 5 of 6 (T/C endpoint: mean survival time, dose: 200.0 mg/kg/injection, schedule: Q04DX003 (ip), vehicle: saline with Tween-80); 6 of 6 under setting [2].

As to `CCN(CC)CCC(O)c1ccc2c3ccccc3n(C)c2c1` (configuration not stated), the survivor count reads like this: under setting [3], 1 of 3; (T/C endpoint: mean survival time, dose: 400.0 mg/kg/injection, schedule: Q04DX002 (ip), vehicle: saline with Tween-80) 0 of 3.

As for `Cc1ccc(O)c(N)c1`, under setting [2], the survivor count is listed as 1 of 6.

Consider `COc1cc2cc(c1Cl)N(C)C(=O)CC(OC(=O)C(C)N(C)C(=O)C(C)C)C1(C)OC1C(C)C1CC(O)(NC(=O)O1)C(OC)/C=C/C=C(C)C2OC` (configuration not stated), for which the T/C (T/C endpoint: median survival time, dose: 32.0 micrograms/kg/injection, schedule: Q01DX009 (ip), vehicle: Klucel (hydroxypropylcellulose) (HPC)) was 132 % of control.

With `CCCCNS(=O)(=O)c1ccccc1`, the survivor count under setting [2] is recorded as 2 of 6.

With `Nc1nc(Cl)[nH]c(=O)n1`, the survivor count is, setting by setting: (T/C endpoint: mean survival time, dose: 100.0 mg/kg/injection, schedule: Q01DX001 (ip), vehicle: Klucel (hydroxypropylcellulose) (HPC)) 3 of 6; (T/C endpoint: mean survival time, dose: 200.0 mg/kg/injection, schedule: Q01DX001 (ip), vehicle: Klucel (hydroxypropylcellulose) (HPC)) 1 of 6; (T/C endpoint: mean survival time, dose: 400.0 mg/kg/injection, schedule: Q01DX001 (ip), vehicle: Klucel (hydroxypropylcellulose) (HPC)) 0 of 6.

In the case of `Cc1[nH]c2ccc(N=CN(C)C)cc2c1C`, the survivor count (T/C endpoint: mean survival time, dose: 100.0 mg/kg/injection, schedule: Q04DX002 (ip), vehicle: saline with Tween-80) was 1 of 3.

As for `C=C(CC(=O)O)C(=O)O`, the survivor count under setting [2] is given as 0 of 6.

On to `O=C(CC(O)C(Cl)(Cl)Cl)c1ccccc1` (configuration not stated), for which, under setting [3], the survivor count is recorded as 0 of 3.

With `CC1(C)CC(N2CCCOP2(=O)N(CCCl)CCCl)CC(C)(C)N1` (configuration not stated), the survivor count (T/C endpoint: mean survival time, dose: 500.0 mg/kg/injection, schedule: Q01DX001 (ip), vehicle: water) is on record as 3 of 6.

Regarding `C/C(=N/NC(=O)c1ccccc1)c1ccc(Cl)cc1Cl`, the survivor count is given as 1 of 6 (T/C endpoint: mean survival time, dose: 100.0 mg/kg/injection, schedule: Q01DX009 (ip), vehicle: Klucel (hydroxypropylcellulose) (HPC)) and 0 of 6 (T/C endpoint: mean survival time, dose: 200.0 mg/kg/injection, schedule: Q01DX009 (ip), vehicle: Klucel (hydroxypropylcellulose) (HPC)).
